Assay results published in patent US20100323975A1, “THERAPEUTIC AGENT FOR CEREBRAL ISCHEMIC INJURY” (OTSUKA PHARMACEUTICAL FACTORY, INC., priority 2007, published 2010).
Some of these results come from one statement about several compounds together. Peptide text beside a SMILES is read from it.

Test: Determination of solubility of L-histidine dipeptides in solvent, injection solutions pH 6 to 7 (Test Example 3)
Format: physicochemical
Settings: injection solutions having pH 6 to 7; 0.3 mol/L = L-histidine concentration 4.67% (W/V)

| Structure (SMILES) | Concentration at which the dipeptide could be dissolved [mol/L] |
| --- | --- |
| N[C@@H](Cc1c[nH]cn1)C(=O)N[C@@H](Cc1ccccc1)C(=O)O [L-histidyl-L-phenylalanine] (H-His-Phe-OH) | < 0.3 |
| N[C@@H](Cc1c[nH]cn1)C(=O)N[C@@H](Cc1ccc(O)cc1)C(=O)O [L-histidyl-L-tyrosine] (H-His-Tyr-OH) | < 0.3 |
